Values from PubChem BioAssay AID1259405 (NCATS, 2018)
In all, the deposit lists about 50,000 reagents; shown is an unselected part. In the full data, about 4,000 (8%) are marked active. 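Mouse siRNA library applied to hamster cells; one well for each siRNA.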 Reagents against one gene are numbered here. No sequences are given here.

Screen: 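Knock-downs that lift recombinant protein yield in hamster ovary cells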 (primary screen)
Cells: Chinese hamster CHO-K1 ovary cells with stable secreted eGFP expression
Knock-down reagent: single siRNA against mouse genes, 0.8 pmol siRNA per well (2 µl of 400 nM stock)
Time to read-out: 3 days
Measured: 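Percent of the per-plate non-targeting control median for intracellular GFP per well by laser scanning cytometry and for cell viability by ATP luminescence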
Direction: GFP, % of control: higher = more GFP per well, higher productivity; viability (ATP), % of control: higher = more viable cells (more ATP)
Active means: 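Called active when intracellular GFP, relative to negative control, is at or above 120%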

no.	Gene	reagent no.	GFP, % of control	viability (ATP), % of control	activity call
1	Dync2li1 (dynein cytoplasmic 2 light intermediate chain 1)	1	80	71.6	inactive
2	Dync2li1 (dynein cytoplasmic 2 light intermediate chain 1)	2	67.1	92.6	inactive
3	Dync2li1 (dynein cytoplasmic 2 light intermediate chain 1)	3	85.2	114	inactive
4	Dis3l2 (DIS3 like 3'-5' exoribonuclease 2)	1	30.2	36.4	inactive
5	Dis3l2 (DIS3 like 3'-5' exoribonuclease 2)	2	49.5	56.8	inactive
6	Dis3l2 (DIS3 like 3'-5' exoribonuclease 2)	3	63.9	54.8	inactive
7	Bag1 (BCL2-associated athanogene 1)	1	33	26.3	inactive
8	Bag1 (BCL2-associated athanogene 1)	2	129	87.5	active
9	Bag1 (BCL2-associated athanogene 1)	3	56.5	64.4	inactive
10	Or4x15 (olfactory receptor family 4 subfamily X member 15)	1	97.7	112	inactive
11	Or4x15 (olfactory receptor family 4 subfamily X member 15)	2	113	47.7	inactive
12	Or4x15 (olfactory receptor family 4 subfamily X member 15)	3	71	73.4	inactive
13	Edar (ectodysplasin-A receptor)	1	93.6	94.7	inactive
14	Edar (ectodysplasin-A receptor)	2	87	71.4	inactive
15	Srpk3 (serine/arginine-rich protein specific kinase 3)	1	51.1	51	inactive
16	D630028G08Rik (RIKEN cDNA D630028G08 gene)	1	85.5	92.7	inactive
17	D630028G08Rik (RIKEN cDNA D630028G08 gene)	2	84.2	50	inactive
18	D630028G08Rik (RIKEN cDNA D630028G08 gene)	3	87.4	75.9	inactive
19	Plcb2 (phospholipase C, beta 2)	1	70	63.8	inactive
20	Plcb2 (phospholipase C, beta 2)	2	132	99.4	active
21	Plcb2 (phospholipase C, beta 2)	3	101	62.2	inactive
22	Hsd17b13 (hydroxysteroid (17-beta) dehydrogenase 13)	1	68.9	69.4	inactive
23	Hsd17b13 (hydroxysteroid (17-beta) dehydrogenase 13)	2	50.6	48.9	inactive
24	Hsd17b13 (hydroxysteroid (17-beta) dehydrogenase 13)	3	88.5	78.3	inactive
25	Plac8 (placenta-specific 8)	1	68.8	57.4	inactive
26	Plac8 (placenta-specific 8)	2	69.6	25.8	inactive
27	Plac8 (placenta-specific 8)	3	103	75	inactive
28	Sfxn5 (sideroflexin 5)	1	96.3	65.2	inactive
29	Sfxn5 (sideroflexin 5)	2	63.7	47	inactive
30	Sfxn5 (sideroflexin 5)	3	57.7	41.7	inactive
31	Ndufc2 (NADH:ubiquinone oxidoreductase subunit C2)	1	94.4	90.2	inactive
32	Ndufc2 (NADH:ubiquinone oxidoreductase subunit C2)	2	114	73.3	inactive
33	Ndufc2 (NADH:ubiquinone oxidoreductase subunit C2)	3	96.3	69	inactive
34	Ptprr (protein tyrosine phosphatase receptor type R)	1	186	120	active
35	Ptprr (protein tyrosine phosphatase receptor type R)	2	152	108	active
36	Ptprr (protein tyrosine phosphatase receptor type R)	3	75.4	57.5	inactive
37	Tmc2 (transmembrane channel-like gene family 2)	1	41.3	62.6	inactive
38	Tmc2 (transmembrane channel-like gene family 2)	2	89	82.5	inactive
39	Tmc2 (transmembrane channel-like gene family 2)	3	75.3	103	inactive
40	Nap1l2 (nucleosome assembly protein 1-like 2)	1	89.8	62.1	inactive
41	Nap1l2 (nucleosome assembly protein 1-like 2)	2	87.3	84.3	inactive
42	Nap1l2 (nucleosome assembly protein 1-like 2)	3	78.8	73.5	inactive
43	Prr5 (proline rich 5 (renal))	1	46.8	57.4	inactive
44	Prr5 (proline rich 5 (renal))	2	63.7	84.3	inactive
45	Prr5 (proline rich 5 (renal))	3	207	112	active
46	Or51b4 (olfactory receptor family 51 subfamily B member 4)	1	45.9	56.6	inactive
47	Or51b4 (olfactory receptor family 51 subfamily B member 4)	2	63.2	53.1	inactive
48	Or51b4 (olfactory receptor family 51 subfamily B member 4)	3	66.1	80.3	inactive
49	A530021J07Rik (Riken cDNA A530021J07 gene)	1	55.5	77.1	inactive
50	A530021J07Rik (Riken cDNA A530021J07 gene)	2	82.2	101	inactive
51	A530021J07Rik (Riken cDNA A530021J07 gene)	3	64.6	82.6	inactive
52	Wfs1 (wolframin ER transmembrane glycoprotein)	1	90.3	67.3	inactive
53	Wfs1 (wolframin ER transmembrane glycoprotein)	2	44.5	59	inactive
54	Wfs1 (wolframin ER transmembrane glycoprotein)	3	79.6	76.8	inactive
55	Il31ra (interleukin 31 receptor A)	1	62.2	61.5	inactive
56	Il31ra (interleukin 31 receptor A)	2	71.6	59.8	inactive
57	Il31ra (interleukin 31 receptor A)	3	106	99.3	inactive
58	Pkig (protein kinase inhibitor, gamma)	1	49.5	57.3	inactive
59	Pkig (protein kinase inhibitor, gamma)	2	86.4	62.4	inactive
60	Pkig (protein kinase inhibitor, gamma)	3	70.7	90.1	inactive
61	Cinp (cyclin dependent kinase 2 interacting protein)	1	34.4	38.7	inactive
62	Cinp (cyclin dependent kinase 2 interacting protein)	2	48.4	46.1	inactive
63	Cinp (cyclin dependent kinase 2 interacting protein)	3	84.4	96.5	inactive
64	Sppl3 (signal peptide peptidase 3)	1	137	113	active
65	Sppl3 (signal peptide peptidase 3)	2	46.3	93.9	inactive
66	Sppl3 (signal peptide peptidase 3)	3	74.4	89.2	inactive
67	Zfp677 (zinc finger protein 677)	1	87.5	95.7	inactive
68	Zfp677 (zinc finger protein 677)	2	45.5	49.2	inactive
69	Zfp677 (zinc finger protein 677)	3	120	120	inactive
70	Or51f23b (olfactory receptor family 51 subfamily F member 23B)	1	68.8	66.4	inactive
71	Or51f23b (olfactory receptor family 51 subfamily F member 23B)	2	84.3	49.8	inactive
72	Or51f23b (olfactory receptor family 51 subfamily F member 23B)	3	63.1	83.8	inactive
73	Appl2	1	64.9	80.7	inactive
74	Appl2	2	87.1	77.2	inactive
75	Appl2	3	116	90.9	inactive
76	Dyrk1b	1	139	120	active
77	Stt3b	1	89.2	76.3	inactive
78	Stt3b	2	30.9	55.2	inactive
79	Stt3b	3	77.2	82.5	inactive
80	2810021J22Rik (RIKEN cDNA 2810021J22 gene)	1	74.3	75.5	inactive
81	2810021J22Rik (RIKEN cDNA 2810021J22 gene)	2	72.3	43.8	inactive
82	2810021J22Rik (RIKEN cDNA 2810021J22 gene)	3	82.7	70.3	inactive
83	Gdpd2 (glycerophosphodiester phosphodiesterase domain containing 2)	1	84.4	94.9	inactive
84	Gdpd2 (glycerophosphodiester phosphodiesterase domain containing 2)	2	117	72.7	inactive
85	Gdpd2 (glycerophosphodiester phosphodiesterase domain containing 2)	3	40.7	54.9	inactive

Entries listed so far whose target name begins with H or h (3):
Gene	reagent no.	GFP, % of control	viability (ATP), % of control	activity call
Hsd17b13 (hydroxysteroid (17-beta) dehydrogenase 13)	1	68.9	69.4	inactive
Hsd17b13 (hydroxysteroid (17-beta) dehydrogenase 13)	2	50.6	48.9	inactive
Hsd17b13 (hydroxysteroid (17-beta) dehydrogenase 13)	3	88.5	78.3	inactive
